No constants are given. Whether binding was seen depends on the method and setting. Some results given as binding are weak or reduced against the parent protein; the word gives no strength. Sequences can lack the tags named with a protein.
Target: epitope-tagged (V5) full-length murine TLT-1 (TREM-like transcript-1) expressed in HEK293T cells (mouse) (UniProt Q8K558)
Experiment: immunoprecipitation and Western blot of surface-biotinylated cells in nonreducing buffer

B1: epitope-tagged (V5) full-length murine TLT-1 (TREM-like transcript-1) expressed in HEK293T cells (receptor, not shown: small tags and cut ends)
chain: QGSADSHPEVLQAPVGSSILVQCHYRLQDVRALKVWCQFLQEGCHPLVTSAVDRRAPGNGRIFLTDLGGGLLQVEMVTLQEEDTGEYGCVVEGAAGPQTLHRVSLLVLPPVPGPREGEEAEDEKETYRIGTGSLLEDPSLDPSASAGPHEFRRRENRCQKQCIPLIWGAVLLLALVVVAVVIFAVMARKKGNRLVVCGPSQSTGVPGMDPPSAAHRSSDSGLPSDIPHVRLDSPPSFDSIYTGSSLDPPSSEPPAPPSQPPLPPKVLMSSKSVTYATVVFPGGDKGKIASCEPVQDPPNSQTPPSK
B1 was tested, and the binding was “binds”.

Reference: patent US20040180409A1
